These are yes or no findings as the source states them, for the method shown. In cells and extracts the contact can be indirect. Some entries that bind do so weakly or less than the wild type.
Biological target: T1, arrestin domain containing 3 (ARRDC3) (mouse (endogenous in hippocampus of Tg6799 and littermate mice)) (UniProt Q7TPQ9)
T1 sequence: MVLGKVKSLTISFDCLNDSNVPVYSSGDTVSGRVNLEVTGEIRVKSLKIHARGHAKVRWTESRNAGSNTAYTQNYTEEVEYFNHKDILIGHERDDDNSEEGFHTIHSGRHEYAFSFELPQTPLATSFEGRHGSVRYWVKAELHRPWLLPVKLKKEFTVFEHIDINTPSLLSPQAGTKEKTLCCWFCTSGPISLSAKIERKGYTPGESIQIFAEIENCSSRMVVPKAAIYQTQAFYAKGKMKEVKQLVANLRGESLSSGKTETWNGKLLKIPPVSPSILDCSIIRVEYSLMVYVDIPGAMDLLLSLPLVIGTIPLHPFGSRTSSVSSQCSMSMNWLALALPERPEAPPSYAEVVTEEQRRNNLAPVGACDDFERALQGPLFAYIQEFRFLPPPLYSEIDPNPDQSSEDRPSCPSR
Test: co-IP; hippocampus protein samples (10 ug) of Tg6799 (MT) mice and littermate (LM) controls at 10 months of age; precipitated with polyclonal anti-ARRDC3 at 4°C overnight and protein A agarose, blotted with polyclonal anti-Sfpq; homogenization buffer 50 mM Tris-Cl pH 8.0, 150 mM NaCl, 5 mM EDTA, 1% Triton X-100

binding: binds
B1: splicing factor, proline- and glutamine-rich (Sfpq) (protein, UniProt Q8VIJ6 1-699)
chain: MSRDRFRSRGGGGGGFHRRGGGGGRGGLHDFRSPPPGMGLNQNRGPMGPGPGGPKPPLPPPPPHQQQQQPPPQQPPPQQPPPHQQPPPHQPPHQQPPPPPQESKPVVPQGPGSAPGVSSAPPPAVSAPPANPPTTGAPPGPGPTPTPPPAVPSTAPGPPPPSTPSSGVSTTPPQTGGPPPPPAGGAGPGPKPGPGPGGPKGGKMPGGPKPGGGPGMGAPGGHPKPPHRGGGEPRGGRQHHAPYHQQHHQGPPPGGPGPRTEEKISDSEGFKANLSLLRRPGEKTYTQRCRLFVGNLPADITEDEFKRLFAKYGEPGEVFINKGKGFGFIKLESRALAEIAKAELDDTPMRGRQLRVRFATHAAALSVRNLSPYVSNELLEEAFSQFGPIERAVVIVDDRGRSTGKGIVEFASKPAARKAFERCSEGVFLLTTTPRPVIVEPLEQLDDEDGLPEKLAQKNPMYQKERETPPRFAQHGTFEYEYSQRWKSLDEMEKQQREQVEKNMKDAKDKLESEMEDAYHEHQANLLRQDLMRRQEELRRMEELHSQEMQKRKEMQLRQEEERRRREEEMMIRQREMEEQMRRQREESYSRMGYMDPRERDMRMGGGGTMNMGDPYGSGGQKFPPLGGGGGIGYEANPGVPPATMSGSMMGSDMRTERFGQGGAGPVGGQGPRGMGPGTPAGYGRGREEYEGPNKKPRF

Source: PMC4132902
